From paper PMC9225343
No constants are given. Whether binding was seen depends on the method and setting. In cells and extracts the contact can be indirect. Some results given as binding are weak or reduced against the parent protein; the word gives no strength.

Protein sequences, listed by entry. Tags and fused reporters are not part of them.
UniProt P46937: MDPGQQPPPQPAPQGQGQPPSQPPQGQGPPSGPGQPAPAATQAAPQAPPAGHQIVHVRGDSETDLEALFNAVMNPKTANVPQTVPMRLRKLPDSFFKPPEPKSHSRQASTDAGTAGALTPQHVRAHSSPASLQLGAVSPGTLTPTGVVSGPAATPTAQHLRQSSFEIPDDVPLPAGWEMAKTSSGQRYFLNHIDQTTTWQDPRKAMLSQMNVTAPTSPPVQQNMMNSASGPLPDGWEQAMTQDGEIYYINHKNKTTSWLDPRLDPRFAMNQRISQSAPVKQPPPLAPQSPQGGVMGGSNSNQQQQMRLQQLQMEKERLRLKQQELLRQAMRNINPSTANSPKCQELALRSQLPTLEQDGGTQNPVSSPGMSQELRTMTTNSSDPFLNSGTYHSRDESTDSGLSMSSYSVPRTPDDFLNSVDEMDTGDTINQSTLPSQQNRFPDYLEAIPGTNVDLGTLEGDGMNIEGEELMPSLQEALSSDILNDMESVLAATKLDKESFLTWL

Molecular target: Yes-associated protein (human (endogenous in N/TERT)) (UniProt P46937)
Experiment: co-IP; freshly confluent N/TERT cell lysates; IP with anti-p-YAP or anti-YAP antibody, blot for Dsg3; control beads alone; input 7~8%

binding: binds
B1: Desmoglein-3 (protein, UniProt P32926 50-999)
chain: EWVKFAKPCREGEDNSKRNPIAKITSDYQATQKITYRISGVGIDQPPFGIFVVDKNTGDINITAIVDREETPSFLITCRALNAQGLDVEKPLILTVKILDINDNPPVFSQQIFMGEIEENSASNSLVMILNATDADEPNHLNSKIAFKIVSQEPAGTPMFLLSRNTGEVRTLTNSLDREQASSYRLVVSGADKDGEGLSTQCECNIKVKDVNDNFPMFRDSQYSARIEENILSSELLRFQVTDLDEEYTDNWLAVYFFTSGNEGNWFEIQTDPRTNEGILKVVKALDYEQLQSVKLSIAVKNKAEFHQSVISRYRVQSTPVTIQVINVREGIAFRPASKTFTVQKGISSKKLVDYILGTYQAIDEDTNKAASNVKYVMGRNDGGYLMIDSKTAEIKFVKNMNRDSTFIVNKTITAEVLAIDEYTGKTSTGTVYVRVPDFNDNCPTAVLEKDAVCSSSPSVVVSARTLNNRYTGPYTFALEDQPVKLPAVWSITTLNATSALLRAQEQIPPGVYHISLVLTDSQNNRCEMPRSLTLEVCQCDNRGICGTSYPTTSPGTRYGRPHSGRLGPAAIGLLLLGLLLLLLAPLLLLTCDCGAGSTGGVTGGFIPVPDGSEGTIHQWGIEGAHPEDKEITNICVPPVTANGADFMESSEVCTNTYARGTAVEGTSGMEMTTKLGAATESGGAAGFATGTVSGAASGFGAATGVGICSSGQSGTMRTRHSTGGTNKDYADGAISMNFLDSYFSQKAFACAEEDDGQEANDCLLIYDNEGADATGSPVGSVGCCSFIADDLDDSFLDSLGPKFKKLAEISLGVDGEGKEVQPPSKDSGYGIESCGHPIEVQQTGFVKCQTLSGSQGASALSTSGSVQPAVSIPDPLQHGNYLVTETYSASGSLVQPSTAGFDPLLTQNVIVTERVICPISSVPGNLAGPTQLRGSHTMLCTEDPCSRLI
